These are yes or no findings as the source states them, for the method shown. Binding calls can cover weak binding; strength is not graded here. Where a sequence is shown, tags or fusion partners need not be part of it.
Assays:
[1] = molecular target: His-importin 7 (Xenopus laevis) (Xenopus laevis); test: SEC; His-NOSIP preincubated with one His-tagged NTR at 1:1 in TPB, 1-2 h, 4 °C; Superdex S200 increase 10/300 GL; fractions by SDS-PAGE, Coomassie; both purified
[2] = molecular target: His-importin 7 (Xenopus laevis) (Xenopus laevis); test: SEC; His-importin β : His-importin 7 : His-NOSIP at 1:1:3 in TPB; Superdex S200 increase 10/300 GL; fractions by SDS-PAGE, Coomassie; both purified

binding [1]: binds | binding [2]: binds
B1: His-NOSIP (protein, UniProt Q9Y314 1-301)
chain: MTRHGKNCTAGAVYTYHEKKKDTAASGYGTQNIRLSRDAVKDFDCCCLSLQPCHDPVVTPDGYLYEREAILEYILHQKKEIARQMKAYEKQRGTRREEQKELQRAASQDHVRGFLEKESAIVSRPLNPFTAKALSGTSPDDVQPGPSVGPPSKDKDKVLPSFWIPSLTPEAKATKLEKPSRTVTCPMSGKPLRMSDLTPVHFTPLDSSVDRVGLITRSERYVCAVTRDSLSNATPCAVLRPSGAVVTLECVEKLIRKDMVDPVTGDKLTDRDIIVLQRGGTGFAGSGVKLQAEKSRPVMQA
